# Not every detail of the peptide structures is certain; ends, links or a residue may be inferred. *1 amine or outer side, *2 acyl side, *3 side chain or, on linkers, in order; H or OH if unused. Where a SMILES comes first, the peptide text is derived from it. Bridges are numbered along the chain shown (N, C = ends). [ ]: non-standard residue; d: D form. X3 = CC(C)[C@@H](C(=O)[*:2])N(N)[*:1]; mXylylene = c1cc(C[*:1])cc(C[*:2])c1
# By UniProt entry, the sequences of proteins in these tests, tags left out. Residues count along the entry.
# UniProt P10636, 1-383 isoform P10636-6 P243L: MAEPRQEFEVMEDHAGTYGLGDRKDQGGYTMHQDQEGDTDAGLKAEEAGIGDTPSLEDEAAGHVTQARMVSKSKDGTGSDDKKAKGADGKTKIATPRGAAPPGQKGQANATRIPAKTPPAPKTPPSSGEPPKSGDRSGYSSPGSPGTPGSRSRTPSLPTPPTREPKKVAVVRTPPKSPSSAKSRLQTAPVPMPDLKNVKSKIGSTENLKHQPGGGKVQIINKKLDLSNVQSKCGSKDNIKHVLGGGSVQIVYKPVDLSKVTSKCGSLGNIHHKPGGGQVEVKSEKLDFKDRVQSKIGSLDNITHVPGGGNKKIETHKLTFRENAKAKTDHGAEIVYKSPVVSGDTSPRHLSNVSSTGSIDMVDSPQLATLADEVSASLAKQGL
# Key:
# [1] = system: AD tau; experiment: Biosensor cell seeding assay with patient-derived AD tau extract; type: cell-based, human
# [2] = biological target: T1, tauP301L (Homo sapiens, UniProt P10636, P618L); experiment: Cellular seeding assay, monomeric tauP301L co-incubated with inhibitor, HEK293 tau-RD(LM)-YFP biosensor cells; type: cell-based; details: 190 nM tauP301L
# T1 construct: we expressed and purified full-length tau featuring a P301L mutation; His6 (N); made in house; host or cells: E. coli BL21 (DE3)
# Source text: Di-N-aminated Hexapeptides Block the Cellular Transmission of Tau Fibrils. […] This mode of propagation is important for the spread of NFTs, neuropil threads, and plaque-associated neurites—all of which contribute to the progression of Alzheimer's disease. To test whether NAP inhibitors are able to block the seeding activity of recombinant tauP301L, we employed HEK293 biosensor cells that stably express a tau-yellow fluorescent protein fusion [tau-RD(LM)-YFP]. When we treated these cells with preformed heparin-induced fibrils of tauP301L, we observed a large number of intracellular tau aggregates, as indicated by punctate fluorescence after 48 h.
# Mxyl-NAPs inhibit the seeding capacity of full-length tau in a biosensor cell assay. The ability to halt the prion-like spread of tau fibrils from diseased to healthy cells using designed molecules remains a considerable challenge. […] To test whether mxyl-NAPs could block this seeding activity, we treated HEK293 biosensor cells that express a tau yellow fluorescent protein fusion (tau-RD[LM]-YFP) with tauP301L incubated in the presence or absence of inhibitors. Heparin-induced fibrils of tauP301L grown in the absence of mxyl-NAPs led to strong intracellular FRET signal resulting from endogenous tau-RD(LM)-YFP aggregation. Quantitative brightness threshold-based analysis of puncta within the biosensor cells provided a positive baseline for seed-competent recombinant tau fibrils.
# Cellular Seeding Assay. The tauP301L was diluted to a final concentration of […] in an aggregation buffer containing 100 mM sodium acetate, 10 μM heparin, and 2 mM DTT, pH: 7.4. The protein was incubated in a microcentrifuge tube for 4 days at 37° C. with a shaking speed of 100 rpm. Control vials included those wherein (1) buffer was added in place of tauP301L and (2) buffer was added in place of heparin.
# For each experiment, cells were plated at a density of 15,000 cells/well in 96-well tissue culture plates.
# For seeding by monomeric tau, freshly purified recombinant tauP301L was co-incubated with heparin and NAPs for 4 days in an aggregation buffer at 37° C. (see the above section). Following incubation, the reaction mixture was diluted in the low-serum Opti-MEM medium, mixed with Lipofectamine 2000 in a 20:1 ratio (complex/Lipofectamine) and allowed to incubate for an additional 20 min at rt. A mixture of 0.19 μM tau+1.9 μM or 0.009 μM inhibitors (final concentrations) was added to the cells. Cells were incubated for an additional 48 h before taking measurements on a BioTek Cytation 5 cell imager and a microplate reader. 10×10 pictures/well were taken at 20× magnification under an FITC channel, and the punctate counting was carried out using built-in software. […] Every experiment included control wells (no tau, no heparin, and no NAP). […]
smiles,measurement,setting,value
CC[C@H](C)[C@@H]1NC(=O)[C@H](CCC(N)=O)NC(=O)[C@H](C(C)C)NC(=O)[C@@H](C)NC(=O)[C@H](Cc2c[nH]cn2)NC(=O)[C@H](CO)NC(=O)[C@@H](C)NC(=O)[C@H](CCCNC(=N)N)NC(=O)[C@H](Cc2ccccc2)NC(=O)[C@H]([C@@H](C)O)NC(=O)[C@H](CC(C)C)NC(=O)[C@H](CCCCN)NC(=O)[C@H](Cc2c[nH]cn2)NC(=O)[C@H]([C@@H](C)O)NC(=O)CNC(=O)[C@@H](NC(C)=O)CSCc2cccc(c2)CSC[C@@H](C(N)=O)NC(=O)CNC(=O)[C@H](CCCCN)NC(=O)[C@H](Cc2ccc(O)cc2)NC(=O)[C@H](C(C)C)N(N)C1=O [mxyl-NAP2] (Ac-CGTHKLTFR[dA]SH[dA]VQI[X3]YKGC-NH2; linker 1-21 via mXylylene),inhibitory efficacy on AD tau seeding activity,[1]; 23.8 mM (so in the source),> 75%
same,inhibition of AD tau seeding activity,[1]; concentrations lower than 23.8 mM (so in the source),far less effective
same,seeding activity of tauP301L in HEK293 biosensor cells,"[2]; 95 nM (0.5 equiv) compound, added in fibril growth stage",significantly reduced ability to seed
same,seeding activity of tauP301L in HEK293 biosensor cells,"[2]; 95 nM (0.5 equiv) compound, added in fibril growth stage, listed as Mxyl-NAP2",potent inhibition
same,seeding activity of tauP301L in HEK293 biosensor cells,[2]; 380 nM (2 equiv) compound,significantly reduced ability to seed
same,seeding activity of tauP301L in HEK293 biosensor cells,[2]; concentrations lower than 95 nM,less effective

# From patent US20230399361A1, “MACROCYCLIC PEPTIDES” (UNIVERSITY OF NOTRE DAME DU LAC, priority 2022, published 2023)
